This is an account of results in the supplement of paper PMC8728848.

The list shows a part of the results.

Common to all, as to assay: glycan array binding signal (z-score within array); higher = stronger binding
What all share (details): glycan notation: IUPAC condensed, linker removed

In assay [1] the target is Gal(b1-4)GlcNAc(b1-2)[Gal(b1-4)GlcNAc(b1-6)]Man(a1-6)[Gal(b1-4)GlcNAc(b1-2)Man(a1-3)]Man(b1-4)GlcNAc(b1-4)[Fuc(a1-6)]GlcNAc. The method, boiled down:
(§1)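 Columns mapping to the same glycan were averaged after glycan names were converted to IUPAC-condensed notation. The data come from 3228 arrays in the Consortium for Functional Glycomics database, limited to those with an available protein sequence. Binding is reported as a within-array Z-score averaged across arrays of one protein sequence and across linkers.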

For assay [2], the target named is Gal(b1-4)GlcNAc(b1-2)[Gal(b1-4)GlcNAc(b1-6)]Man(a1-6)[GlcNAc(b1-4)][Gal(b1-4)GlcNAc(b1-2)Man(a1-3)]Man(b1-4)GlcNAc(b1-4)GlcNAc. The method, boiled down: as §1
The target in assay [3] is Gal(b1-4)GlcNAc(b1-2)[Gal(b1-4)GlcNAc(b1-6)]Man(a1-6)[GlcNAc(b1-4)][Gal(b1-4)GlcNAc(b1-2)[Gal(b1-4)GlcNAc(b1-4)]Man(a1-3)]Man(b1-4)GlcNAc(b1-4)[Fuc(a1-6)]GlcNAc. The method, boiled down:
as §1

In assay [4] the target is Gal(b1-4)GlcNAc(b1-3)Gal(b1-3)GalNAc. The method, boiled down: as §1
Assay [5] addresses Gal(b1-4)GlcNAc(b1-3)Gal(b1-3)GlcNAc. The method, boiled down:
as §1

Assay [6] has as its target Gal(b1-4)GlcNAc(b1-3)Gal(b1-4)Glc. An outline of the steps:
as §1

Assay [7] addresses Gal(b1-4)GlcNAc(b1-3)Gal(b1-4)GlcNAc. An outline of the steps: as §1
The target in assay [8] is Gal(b1-4)GlcNAc(b1-3)Gal(b1-4)GlcNAc(b1-2)Man(a1-3)[Gal(b1-4)GlcNAc(b1-3)Gal(b1-4)GlcNAc(b1-2)Man(a1-6)]Man(b1-4)GlcNAc(b1-4)GlcNAc. An outline of the steps: as §1
The target of assay [9] is Gal(b1-4)GlcNAc(b1-3)Gal(b1-4)GlcNAc(b1-2)Man(a1-3)[Gal(b1-4)GlcNAc(b1-3)Gal(b1-4)GlcNAc(b1-2)Man(a1-6)]Man(b1-4)GlcNAc(b1-4)[Fuc(a1-6)]GlcNAc. The method, boiled down: as §1
Assay [10] has as its target Gal(b1-4)GlcNAc(b1-3)Gal(b1-4)GlcNAc(b1-2)[Gal(b1-4)GlcNAc(b1-3)Gal(b1-4)GlcNAc(b1-6)]Man(a1-6)[Gal(b1-4)GlcNAc(b1-3)Gal(b1-4)GlcNAc(b1-2)Man(a1-3)]Man(b1-4)GlcNAc(b1-4)GlcNAc. The method, boiled down: as §1
Assay [11] deals with Gal(b1-4)GlcNAc(b1-3)Gal(b1-4)GlcNAc(b1-2)[Gal(b1-4)GlcNAc(b1-3)Gal(b1-4)GlcNAc(b1-6)]Man(a1-6)[Gal(b1-4)GlcNAc(b1-3)Gal(b1-4)GlcNAc(b1-2)Man(a1-3)]Man(b1-4)GlcNAc(b1-4)[Fuc(a1-6)]GlcNAc. An outline of the steps:
as §1

The target in assay [12] is Gal(b1-4)GlcNAc(b1-3)Gal(b1-4)GlcNAc(b1-3)Gal(b1-4)GlcNAc. An outline of the steps: as §1
Assay [13] has as its target Gal(b1-4)GlcNAc(b1-3)Gal(b1-4)GlcNAc(b1-3)Gal(b1-4)GlcNAc(b1-2)Man(a1-3)[Gal(b1-4)GlcNAc(b1-3)Gal(b1-4)GlcNAc(b1-3)Gal(b1-4)GlcNAc(b1-2)Man(a1-6)]Man(b1-4)GlcNAc(b1-4)GlcNAc. An outline of the steps: as §1
In assay [14] the target is Gal(b1-4)GlcNAc(b1-3)Gal(b1-4)GlcNAc(b1-3)Gal(b1-4)GlcNAc(b1-2)Man(a1-3)[Gal(b1-4)GlcNAc(b1-3)Gal(b1-4)GlcNAc(b1-3)Gal(b1-4)GlcNAc(b1-2)Man(a1-6)]Man(b1-4)GlcNAc(b1-4)[Fuc(a1-6)]GlcNAc. An outline of the steps:
as §1

Assay [15] deals with Gal(b1-4)GlcNAc(b1-3)Gal(b1-4)GlcNAc(b1-3)Gal(b1-4)GlcNAc(b1-2)[Gal(b1-4)GlcNAc(b1-3)Gal(b1-4)GlcNAc(b1-3)Gal(b1-4)GlcNAc(b1-6)]Man(a1-6)[Gal(b1-4)GlcNAc(b1-3)Gal(b1-4)GlcNAc(b1-3)Gal(b1-4)GlcNAc(b1-2)Man(a1-3)]Man(b1-4)GlcNAc(b1-4)[Fuc(a1-6)]GlcNAc. The method, boiled down: as §1
In assay [16] the target is Gal(b1-4)GlcNAc(b1-3)Gal(b1-4)GlcNAc(b1-3)Gal(b1-4)GlcNAc(b1-3)Gal(b1-4)GlcNAc(b1-2)Man(a1-3)[Gal(b1-4)GlcNAc(b1-3)Gal(b1-4)GlcNAc(b1-3)Gal(b1-4)GlcNAc(b1-3)Gal(b1-4)GlcNAc(b1-2)Man(a1-6)]Man(b1-4)GlcNAc(b1-4)GlcNAc. The method, boiled down: as §1
Assay [17] concerns the target Gal(b1-4)GlcNAc(b1-3)Gal(b1-4)GlcNAc(b1-3)Gal(b1-4)GlcNAc(b1-3)Gal(b1-4)GlcNAc(b1-2)Man(a1-3)[Gal(b1-4)GlcNAc(b1-3)Gal(b1-4)GlcNAc(b1-3)Gal(b1-4)GlcNAc(b1-3)Gal(b1-4)GlcNAc(b1-2)Man(a1-6)]Man(b1-4)GlcNAc(b1-4)[Fuc(a1-6)]GlcNAc. The method, boiled down:
as §1

The target in assay [18] is Gal(b1-4)GlcNAc(b1-3)Gal(b1-4)GlcNAc(b1-3)Gal(b1-4)GlcNAc(b1-3)Gal(b1-4)GlcNAc(b1-2)[Gal(b1-4)GlcNAc(b1-3)Gal(b1-4)GlcNAc(b1-3)Gal(b1-4)GlcNAc(b1-3)Gal(b1-4)GlcNAc(b1-6)]Man(a1-6)[Gal(b1-4)GlcNAc(b1-3)Gal(b1-4)GlcNAc(b1-3)Gal(b1-4)GlcNAc(b1-3)Gal(b1-4)GlcNAc(b1-2)Man(a1-3)]Man(b1-4)GlcNAc(b1-4)[Fuc(a1-6)]GlcNAc. The method, boiled down: as §1
Assay [19] concerns the target Gal(b1-4)GlcNAc(b1-3)Gal(b1-4)GlcNAc(b1-3)Gal(b1-4)GlcNAc(b1-3)Gal(b1-4)GlcNAc(b1-3)Gal(b1-4)GlcNAc(b1-2)Man(a1-3)[Gal(b1-4)GlcNAc(b1-3)Gal(b1-4)GlcNAc(b1-3)Gal(b1-4)GlcNAc(b1-3)Gal(b1-4)GlcNAc(b1-3)Gal(b1-4)GlcNAc(b1-2)Man(a1-6)]Man(b1-4)GlcNAc(b1-4)GlcNAc. The method, boiled down: as §1
Assay [20] deals with Gal(b1-4)GlcNAc(b1-3)Gal(b1-4)GlcNAc(b1-3)Gal(b1-4)GlcNAc(b1-3)Gal(b1-4)GlcNAc(b1-3)Gal(b1-4)GlcNAc(b1-2)Man(a1-3)[Gal(b1-4)GlcNAc(b1-3)Gal(b1-4)GlcNAc(b1-3)Gal(b1-4)GlcNAc(b1-3)Gal(b1-4)GlcNAc(b1-3)Gal(b1-4)GlcNAc(b1-2)Man(a1-6)]Man(b1-4)GlcNAc(b1-4)[Fuc(a1-6)]GlcNAc. The method, boiled down:
as §1

In assay [21] the target is Gal(b1-4)GlcNAc(b1-3)Gal(b1-4)GlcNAc(b1-3)Gal(b1-4)GlcNAc(b1-3)Gal(b1-4)GlcNAc(b1-3)Gal(b1-4)GlcNAc(b1-2)[Gal(b1-4)GlcNAc(b1-3)Gal(b1-4)GlcNAc(b1-3)Gal(b1-4)GlcNAc(b1-3)Gal(b1-4)GlcNAc(b1-3)Gal(b1-4)GlcNAc(b1-6)]Man(a1-6)[Gal(b1-4)GlcNAc(b1-3)Gal(b1-4)GlcNAc(b1-3)Gal(b1-4)GlcNAc(b1-3)Gal(b1-4)GlcNAc(b1-3)Gal(b1-4)GlcNAc(b1-2)Man(a1-3)]Man(b1-4)GlcNAc(b1-4)[Fuc(a1-6)]GlcNAc. An outline of the steps: as §1

The target of assay [22] is Gal(b1-4)GlcNAc(b1-3)Gal(b1-4)GlcNAc(b1-3)Gal(b1-4)GlcNAc(b1-3)Gal(b1-4)GlcNAc(b1-3)Gal(b1-4)GlcNAc(b1-3)Gal(b1-4)GlcNAc(b1-2)Man(a1-3)[Gal(b1-4)GlcNAc(b1-3)Gal(b1-4)GlcNAc(b1-3)Gal(b1-4)GlcNAc(b1-3)Gal(b1-4)GlcNAc(b1-3)Gal(b1-4)GlcNAc(b1-3)Gal(b1-4)GlcNAc(b1-2)Man(a1-6)]Man(b1-4)GlcNAc(b1-4)GlcNAc. An outline of the steps: as §1
For assay [23], the target named is Gal(b1-4)GlcNAc(b1-3)Gal(b1-4)GlcNAc(b1-3)GalNAc. An outline of the steps:
as §1

B1: XTP3-B-MRH2 (Homo sapiens), Q96DZ1 (protein)
chain: EFLSGSYCFRGGVGWWKYEFCYGKHVHQYHEDKDSGKTSVVVGTWNQEEHIEWAKKNTARAYHLQDDGTQTVRMVSHFYGNGDICDITDKPRQVTVKLKCKESDSPHAVTVYMLEPHSCQYILGVESPVICKILDTA
For the molecule B1, the “glycan array binding signal (z-score)” value in assay [1] was -0.776; in assay [2], 0.887; in [3], -0.209; in [4], -0.252; in assay [5], 0.052; in assay [6] it was 1.56. In addition, the “glycan array binding signal (z-score)” value in assay [7] was determined as 0.386; in assay [8] it was 3.21; in [9] it was 1.88; in [10], 1.73; in assay [11] it was 1.2; in assay [12], 2.01. For the same molecule, the “glycan array binding signal (z-score)” value in assay [13] was 0.893; in assay [14], -0.168; in [15], -0.365; in [16], -0.993; in assay [17], 1.25; in assay [18] it was -0.003. In addition, the “glycan array binding signal (z-score)” value in assay [19] was 1.58; in [20], 0.764; in [21], -0.908; in assay [22] it was -0.498; in assay [23] it was 0.3.
